{"sequences": {"note": "Protein sequences, listed by entry. Tags and fused reporters are not part of them. Lines headed by an entry give the natural chain unless they say otherwise; changes in a name come on top.", "UniProt Q01959, whole entry, looked up": "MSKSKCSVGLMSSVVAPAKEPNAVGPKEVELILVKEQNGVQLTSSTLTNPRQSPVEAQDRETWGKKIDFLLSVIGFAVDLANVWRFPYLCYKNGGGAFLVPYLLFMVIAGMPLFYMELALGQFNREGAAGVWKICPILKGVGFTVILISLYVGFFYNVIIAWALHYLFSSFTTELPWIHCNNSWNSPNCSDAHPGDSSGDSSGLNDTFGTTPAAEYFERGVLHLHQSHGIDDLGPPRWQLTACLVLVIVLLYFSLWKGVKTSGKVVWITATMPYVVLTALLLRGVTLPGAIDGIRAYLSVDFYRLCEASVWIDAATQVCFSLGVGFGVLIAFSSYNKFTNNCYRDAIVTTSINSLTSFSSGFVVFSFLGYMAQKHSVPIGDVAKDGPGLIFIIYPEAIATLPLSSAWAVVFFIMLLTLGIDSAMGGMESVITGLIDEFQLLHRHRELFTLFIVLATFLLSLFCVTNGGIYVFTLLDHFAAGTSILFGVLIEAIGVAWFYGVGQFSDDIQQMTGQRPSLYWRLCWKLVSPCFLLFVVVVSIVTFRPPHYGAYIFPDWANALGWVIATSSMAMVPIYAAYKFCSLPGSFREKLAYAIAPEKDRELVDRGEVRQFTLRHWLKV", "UniProt P23975, whole entry, looked up": "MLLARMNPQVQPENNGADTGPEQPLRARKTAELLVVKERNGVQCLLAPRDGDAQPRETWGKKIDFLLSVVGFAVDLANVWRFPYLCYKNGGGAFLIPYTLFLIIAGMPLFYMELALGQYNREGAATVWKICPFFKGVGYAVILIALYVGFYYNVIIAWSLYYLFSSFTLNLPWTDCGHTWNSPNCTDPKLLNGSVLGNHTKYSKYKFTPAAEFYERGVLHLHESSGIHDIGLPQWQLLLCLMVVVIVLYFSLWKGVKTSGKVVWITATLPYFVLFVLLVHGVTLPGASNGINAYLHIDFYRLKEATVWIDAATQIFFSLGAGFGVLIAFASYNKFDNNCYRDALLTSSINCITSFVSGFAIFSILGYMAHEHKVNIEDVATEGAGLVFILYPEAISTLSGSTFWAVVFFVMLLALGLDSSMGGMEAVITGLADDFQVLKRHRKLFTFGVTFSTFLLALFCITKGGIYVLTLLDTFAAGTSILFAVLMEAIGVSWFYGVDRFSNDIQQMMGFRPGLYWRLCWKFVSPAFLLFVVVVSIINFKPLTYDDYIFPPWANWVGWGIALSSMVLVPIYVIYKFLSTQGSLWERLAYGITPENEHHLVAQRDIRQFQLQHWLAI", "UniProt P19785, whole entry, looked up": "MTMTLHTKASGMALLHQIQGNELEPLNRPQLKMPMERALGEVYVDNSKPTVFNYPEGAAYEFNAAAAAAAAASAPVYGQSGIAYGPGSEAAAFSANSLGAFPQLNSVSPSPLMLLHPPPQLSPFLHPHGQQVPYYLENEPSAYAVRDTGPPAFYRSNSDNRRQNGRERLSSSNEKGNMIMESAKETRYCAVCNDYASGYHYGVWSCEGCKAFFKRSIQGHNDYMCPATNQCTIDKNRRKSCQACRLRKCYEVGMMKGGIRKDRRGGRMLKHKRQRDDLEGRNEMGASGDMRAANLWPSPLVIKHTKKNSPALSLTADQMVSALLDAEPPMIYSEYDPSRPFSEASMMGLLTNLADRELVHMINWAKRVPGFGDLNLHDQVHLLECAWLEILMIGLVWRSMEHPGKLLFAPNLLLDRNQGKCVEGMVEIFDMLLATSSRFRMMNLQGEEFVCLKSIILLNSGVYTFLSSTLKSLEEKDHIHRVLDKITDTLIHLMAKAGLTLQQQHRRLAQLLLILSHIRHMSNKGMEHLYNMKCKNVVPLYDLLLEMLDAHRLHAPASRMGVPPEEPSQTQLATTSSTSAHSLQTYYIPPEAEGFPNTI", "UniProt Q96RI1": "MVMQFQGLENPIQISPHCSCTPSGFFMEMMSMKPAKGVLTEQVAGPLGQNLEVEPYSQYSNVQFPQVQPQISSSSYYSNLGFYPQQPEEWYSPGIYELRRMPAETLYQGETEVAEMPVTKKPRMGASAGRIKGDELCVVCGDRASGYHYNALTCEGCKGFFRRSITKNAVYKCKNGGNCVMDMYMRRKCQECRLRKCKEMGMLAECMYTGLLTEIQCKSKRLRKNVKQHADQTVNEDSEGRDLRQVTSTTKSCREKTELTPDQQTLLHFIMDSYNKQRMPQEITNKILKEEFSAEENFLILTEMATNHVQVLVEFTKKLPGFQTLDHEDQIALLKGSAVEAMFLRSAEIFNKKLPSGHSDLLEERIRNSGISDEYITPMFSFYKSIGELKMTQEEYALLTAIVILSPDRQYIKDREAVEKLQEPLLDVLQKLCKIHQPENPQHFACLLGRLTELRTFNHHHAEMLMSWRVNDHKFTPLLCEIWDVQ"}, "source": "PubChem BioAssay (EPA / NIEHS)", "note": "This list was built around the results that the source calls inconclusive (neither active nor inactive); the mix of calls is not that of the screen. For some of these results: Potencies beside an inconclusive call are fits to weak or partial responses and may not hold up. Active and inactive are the calls of the source. How the source made its calls: active means hit-call score of the fitted dose curve at least 0.9, where 1 is the maximum; inconclusive means response in the unintended direction; inactive means score below 0.9."}
{"target": "human Dopamine Transporter (DAT), SLC6A3 (gene 6531) (UniProt Q01959)", "test": "NVS_TR_hDAT: NovaScreen (NVS) Transporter Assay for human Dopamine Transporter (DAT) (AID 2283374);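 further: activity means loss of bound radioligand signal relative to DMSO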", "method_in_brief": "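Cell-free radioligand binding to extracted human DAT protein, read 1 h after dosing by filter-based scintillation counting. Loss of specific binding scored against DMSO baseline; primary screen in duplicate at 25 uM, actives then run in concentration series.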"}
{"molecule": "CN(C)C(=O)NC1(c2ccccc2)CCN(CCC[C@]2(c3ccc(Cl)c(Cl)c3)CCCN(C(=O)c3ccccc3)C2)CC1", "AC50": "active: 0.418 µM"}
{"molecule": "COc1nc(C)nc(NC(=O)NS(=O)(=O)c2ccccc2OCCCl)n1", "AC50": "inconclusive: 21.8 µM"}
{"molecule": "O=C(O)Cc1ccccc1Nc1c(Cl)cccc1Cl", "outcome": "inactive"}
{"target": "human Norepinephrine Transporter (NET), SLC6A2 (gene 6530) (UniProt P23975)", "test": "NVS_TR_hNET: NovaScreen (NVS) Transporter Assay for human Norepinephrine Transporter (NET) (AID 2283377);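 further: cell-free membrane protein extracted from CHO cells expressing human NET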", "method_in_brief": "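Radioligand binding to human NET in cell-free CHO-derived protein preparations, read by filter-based scintillation counting 1 hour after dosing. Loss of signal versus DMSO baseline indicated displacement; primary screening in duplicate at 25 uM, actives then titrated.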"}
{"molecule": "CN(C)C(=O)NC1(c2ccccc2)CCN(CCC[C@]2(c3ccc(Cl)c(Cl)c3)CCCN(C(=O)c3ccccc3)C2)CC1", "AC50": "active: 0.124 µM"}
{"molecule": "CCOC(=O)COc1ccc2c(c1)CC(NCC(O)c1cccc(Cl)c1)CC2", "note": "(configuration not stated)", "AC50": "active: 0.312 µM"}
{"molecule": "O=C(O)c1ccccc1", "outcome": "inactive"}
{"molecule": "CCc1nc(N)nc(N)c1-c1ccc(Cl)cc1", "AC50": "active: 2.23 µM"}
{"target": "mouse Estrogen Receptor alpha (Era), Esr1 (gene 13982) (UniProt P19785)", "test": "NVS_NR_mERa: NovaScreen (NVS) Nuclear Receptor Binding Assay for mouse Estrogen Receptor alpha (Era) (AID 2283378);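 further: hit means loss of bound radioligand signal relative to DMSO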", "method_in_brief": "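Filter radiodetection of radioligand displacement from extracted receptor protein, measured 18 h post-dose. Single 25 uM concentration in duplicate initially, with concentration-series follow-up. Binding loss fitted relative to DMSO.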"}
{"molecule": "CN(C)C(=O)NC1(c2ccccc2)CCN(CCC[C@]2(c3ccc(Cl)c(Cl)c3)CCCN(C(=O)c3ccccc3)C2)CC1", "outcome": "inactive"}
{"molecule": "O=P(OC(CCl)CCl)(OC(CCl)CCl)OC(CCl)CCl", "AC50": "inconclusive: 45.8 µM"}
{"molecule": "CN(C)C(=O)C1(N2CCCCC2)CCN(CC[C@@]2(c3ccc(Cl)c(Cl)c3)CN(C(=O)c3ccccc3)CCO2)CC1", "AC50": "active: 0.203 µM"}
{"molecule": "O=C(O)c1ccccc1", "outcome": "inactive"}
{"molecule": "CCc1c(C(=O)NN2CCCCC2)nn(-c2ccc(Cl)cc2Cl)c1-c1ccc(Br)cc1", "AC50": "inconclusive: 25 µM"}
{"molecule": "O=C(O)Cc1ccccc1Nc1c(Cl)cccc1Cl", "outcome": "inactive"}
{"molecule": "CN1CCN(Cc2cc(-c3ccc4[nH]c(=O)oc4c3)co2)[C@@H](c2ccc(F)cc2)C1", "AC50": "active: 5.79 µM"}
{"target": "Bile acid receptor (Homo sapiens) (UniProt Q96RI1)", "test": "OT_FXR_FXRSRC1_0480: Odyssey Thera (OT) 8-hour HEK293T Protein-Complementation Assay for Farnesoid X receptor/SRC-1 Co-activator (AID 2283383)", "method_in_brief": "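Human kidney HEK293T cells carried FXR/SRC-1 fragment-complementation constructs. Compounds were added and incubated 8 h. Reporter reassembly upon receptor–co-activator interaction was then quantified by fluorescence, with curves fitted in the positive direction relative to DMSO.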"}
{"molecule": "CN(C)C(=O)NC1(c2ccccc2)CCN(CCC[C@]2(c3ccc(Cl)c(Cl)c3)CCCN(C(=O)c3ccccc3)C2)CC1", "AC50": "active: 15.9 µM"}
{"molecule": "CN(C)C(=O)C1(N2CCCCC2)CCN(CC[C@@]2(c3ccc(Cl)c(Cl)c3)CN(C(=O)c3ccccc3)CCO2)CC1", "AC50": "inconclusive: 22 µM"}
{"molecule": "O=C(O)Cc1ccccc1Nc1c(Cl)cccc1Cl", "outcome": "inactive"}
{"molecule": "O=c1[nH]sc2ccccc12", "AC50": "inconclusive: 50 µM"}
{"molecule": "CCc1nc(N)nc(N)c1-c1ccc(Cl)cc1", "outcome": "inactive"}
{"target": "Bile acid receptor (Homo sapiens) (UniProt Q96RI1)", "test": "OT_FXR_FXRSRC1_1440: Odyssey Thera (OT) 24-hour HEK293T Protein-Complementation Assay for Farnesoid X receptor/SRC-1 Co-activator (AID 2283384)", "method_in_brief": "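Compounds are applied to human kidney HEK293T cells expressing bait and prey fused to reporter protein fragments; after 24 h, reconstituted reporter fluorescence is measured. Activity is fitted as signal gain over DMSO.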"}
{"molecule": "CN(C)C(=O)C1(N2CCCCC2)CCN(CC[C@@]2(c3ccc(Cl)c(Cl)c3)CN(C(=O)c3ccccc3)CCO2)CC1", "AC50": "inconclusive: 21.2 µM"}
{"molecule": "O=c1[nH]sc2ccccc12", "AC50": "inconclusive: 48.2 µM"}
{"molecule": "CN(Cc1cnc2nc(N)nc(N)c2n1)c1ccc(C(=O)N[C@@H](CCC(=O)O)C(=O)O)cc1", "outcome": "inactive"}
